The campaign covered roughly 390,000 compounds. About 610 (0.16%) were called active. The inconclusive results got no clear call from the source; some entries with a clear call stand among them for comparison. Calls come from the whole dose curve; as a rule, active = well fitted inhibition curve with a large enough effect; inconclusive = small, poorly fitted or top-dose-only effect, or effect the other way, or another doubt; inactive = no such curve, though single readings can be large or run the other way. A potency beside an inconclusive call is a rough fit, not a confirmed value.
test: Nrf2 qHTS screen for inhibitors: counterscreen for cytotoxicity; conditions: A549 ARE-Fluc cells, CellTiter-Fluor viability, 18-24 h; series mostly up to 46 µM
Summary of the method: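 Cytotoxicity counterscreen: CellTiter-Fluor fluorescence was measured in A549 ARE_Fluc cells after 18-24 h of compound exposure in a concentration series. The subsequent BugLite luminescent read reports ARE-luciferase activity.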
Potency is the fitted concentration of half-maximal effect.

SMILES	Potency
COCCN(Cc1cc2c(C)cc(C)cc2nc1Cl)C(=O)c1ccccc1F	inconclusive: 25.9 µM [falling, partial curve, poor fit]
C=C1CCC2C(C)(C)[C@H](O)CC[C@@]2(C)[C@@H]1COc1cc(=O)oc2ccccc12 (stereo partly drawn)	inconclusive: 20.6 µM [falling, partial curve, poor fit]
Cc1c(C(=O)N(C)C)sc2c1c(=O)n(-c1ccc(Cl)c(Cl)c1)c(=O)n2Cc1ccc(F)cc1	inconclusive: 32.6 µM [falling, partial curve, poor fit]
Nc1c(O)ccc2c1C(=O)c1ccccc1C2=O	inconclusive: 20.6 µM [falling, partial curve, poor fit]
COc1ccc(NC(=O)CN(C)C(=O)c2ccc(NC3CC3)c([N+](=O)[O-])c2)cc1	inconclusive: 18.4 µM [falling, partial curve, poor fit]
CCCCC(=O)NC(c1ccc([N+](=O)[O-])cc1)c1c(O)ccc2ccccc12 (stereo not drawn)	inconclusive: 29.1 µM [falling, single point]
Cc1cc[n+](-c2nc([O-])sc2/C=N/Nc2ccc([N+](=O)[O-])cc2)cc1	inactive
CCOc1ccccc1NC(=O)c1ccc2oc(=O)c(S(=O)(=O)c3ccc(F)cc3)cc2c1	inconclusive: 16.4 µM [falling, single point]
Cc1ccc(NC(=O)c2ccc(-c3nn(C)c(=O)c4ccccc34)cc2)c(C)c1	inactive
O=C(C1=C[C@H](C2CCCCC2)C[C@H](OCCCCO)O1)N1CCN(Cc2ccc3c(c2)OCO3)CC1	inconclusive: 20.6 µM [falling, single point]
CC(C)C[C@@H](CO)N(Cc1ccccc1)S(=O)(=O)N(Cc1ccccc1)[C@@H](CO)CC(C)C	inconclusive: 20.6 µM [falling, single point]
CCOc1ccccc1OCCCOc1ccc(C)cc1Cl	inconclusive: 32.6 µM [activator, partial curve, poor fit]
Cc1ccc2c(Sc3ccc(Cl)cc3)c(C(=O)N3CCCCC3)[nH]c2c1	inactive
Cc1coc2cc3oc(=O)c(CCC(=O)NCCN4CCOCC4)c(C)c3cc12	inconclusive: 13 µM [activator, partial curve, poor fit]
Cc1[nH]nc2c1C(c1ccco1)C(C#N)=C(N)O2 (stereo not drawn)	inactive
CC(=O)Oc1ccc2ccccc2c1C(NC(=O)Cc1ccccc1)c1ccccc1Cl (stereo not drawn)	inconclusive: 29.1 µM [falling, single point]
Cc1cc(C)cc(N(CC(=O)Nc2ccccc2-c2ccccc2)S(=O)(=O)c2ccccc2)c1	inactive
CCOC(=O)Nc1sc(C)c(C)c1C(=O)OCC	inactive
CC(=O)Nc1ccc(NC(=O)C(C)OC(=O)c2cccs2)cc1 (stereo not drawn)	inactive
COc1cc(C2Nc3ccc4ncccc4c3C3=C2C(=O)CCC3)ccc1O (stereo not drawn)	inconclusive: 9.2 µM [falling, partial curve]
Cc1sc2ncn(CC(=O)NCCCC(=O)N3CCN(c4ccccn4)CC3)c(=O)c2c1C	inconclusive: 6.51 µM [activator, single point]

SMILES	Potency
N#C/C(=C(/O)c1ccc(-c2cccc([N+](=O)[O-])c2)o1)c1nc2ccccc2s1	inconclusive: 25.9 µM [falling, single point]
CCOc1ccc(N2CC(C(=O)N3CCN(c4ccccn4)CC3)CC2=O)cc1 (stereo not drawn)	inactive
CCc1nn(CC(=O)N2CCN(c3cccc(C)c3)C(C)C2)c(=O)c2cc3sccc3n12 (stereo not drawn)	inconclusive: 11.6 µM [falling, single point]
Nc1ccc(O)c2c1C(=O)c1ccccc1C2=O	inconclusive: 18.4 µM [falling, partial curve, poor fit]
Cc1ccc(/C=C2/CNC/C(=C/c3ccc(C)cc3)C2=O)cc1	inconclusive: 29.1 µM [falling, single point]
CCOc1ccc(N(CC(=O)Nc2ccccc2OCC)S(=O)(=O)c2c(C)noc2C)cc1	inactive
COc1ccccc1NC(=O)CCSc1nnc(-c2ccncc2)o1	inactive
CC(=O)c1ccc(-c2ccc(/C=C(/Sc3n[nH]c(C)n3)C(=O)O)o2)cc1	inconclusive: 23.1 µM [falling, partial curve, poor fit]
CCN(CC)S(=O)(=O)c1cccc(-n2c(O)c(C=Nc3ccccc3C(=O)O)c3ccccc3c2=O)c1	inconclusive: 13 µM [falling, partial curve, poor fit]
CC(=O)/C(=N/Nc1ccc([N+](=O)[O-])cc1)N1CCCc2ccccc21	inconclusive: 20.6 µM [falling, single point]
CCc1ccc(C(=O)c2oc3nc(C)cc(C)c3c2N)cc1	inconclusive: 25.9 µM [falling, partial curve, poor fit]
COc1cc(OC)c2c(-c3cccc(-c4ccc(C#N)cc4)c3)cc(=O)oc2c1	inactive
CC(=O)NC1=NC(=O)/C(=C/c2cc(C)n(-c3cccc(C(=O)O)c3)c2C)S1	inconclusive: 20.6 µM [falling, partial curve, poor fit]
S=C(NCCCN1CCOCC1)N1CCN(c2nc(-c3ccc(Cl)cc3)cs2)CC1	inconclusive: 23.1 µM [falling, single point]
O=C(N/N=C/c1ccccn1)c1cc(-c2ccc(Cl)cc2)nc2ccccc12	inconclusive: 5.8 µM [falling, partial curve, poor fit]
COc1ccc(C(=O)Oc2c(Sc3ccccc3)c(C)nn2-c2ccccc2)c(OC)c1	inconclusive: 23.1 µM [falling, single point]
Cc1nc(-c2ccccc2)nc2[nH]ccc(=O)c12	inconclusive: 4.61 µM [activator, single point]
CC(C)(C)c1ccc(C(=O)NCC(c2ccco2)S(=O)(=O)c2ccccc2)cc1 (stereo not drawn)	inactive
CCOC(=O)c1ccccc1NC(=O)c1cccc2c1C(=O)N(C1CCN(C(=O)OCC)CC1)C2	inactive
N#C/C(=C/c1ccc(Sc2nc3ccccc3[nH]2)o1)c1ccccc1F	inconclusive: 20.6 µM [falling, partial curve]
O=C(Nc1nccs1)c1ccc(Br)c(S(=O)(=O)N2CCCC2)c1	inactive

Shown with each value named: two of the compounds above
CC(=O)c1ccc(-c2ccc(/C=C(/Sc3n[nH]c(C)n3)C(=O)O)o2)cc1
  Potency: inconclusive: 23.1 µM [falling, partial curve, poor fit]
CCN(CC)S(=O)(=O)c1cccc(-n2c(O)c(C=Nc3ccccc3C(=O)O)c3ccccc3c2=O)c1
  Potency: inconclusive: 13 µM [falling, partial curve, poor fit]

The list goes on:

SMILES	Potency
Cc1cc(NC(=O)c2ccc3c(c2)OCCO3)no1	inconclusive: 5.8 µM [falling, partial curve, poor fit]
COc1cccc(CNC(=O)Cn2nc(C)n3c(cc4cc(C)ccc43)c2=O)c1OC	inactive
COc1ccccc1NC(=O)C(=O)NNS(=O)(=O)c1ccc2ccccc2c1	inconclusive: 6.51 µM [activator, partial curve, poor fit]
CCOC(=O)C(C)N1C(=O)S/C(=C/c2ccc3c(c2)n(C)c(=O)n3C)C1=O (stereo not drawn)	inactive
CCCCN1C(=O)C(O)(CC(=O)c2ccc(CC)cc2)c2cc(Br)ccc21 (stereo not drawn)	inconclusive: 25.9 µM [falling, single point]
CC(C)(C)c1cc(CSC(=S)NC2CCS(=O)(=O)C2)c(Br)c(C(C)(C)C)c1 (stereo not drawn)	inconclusive: 18.4 µM [falling, partial curve, poor fit]
CCN(CC)c1ccc(/C=C(\C#N)c2ccccn2)cc1	inconclusive: 20.6 µM [falling, partial curve, poor fit]
COc1ccc(C(=O)NC2CCCCCC2)cc1S(=O)(=O)N1CCOCC1	inactive
CC(C)(C)NC(=O)NC(=O)CN1C(=O)NC(C)(c2ccccc2)C1=O (stereo not drawn)	inconclusive: 25.9 µM [falling, partial curve, poor fit]
COc1ccc(S(=O)(=O)N[C@@H](Cc2ccc(Cl)cc2)C(=O)N2CC[C@@]3(O)CCCC[C@H]3C2)cc1	inconclusive: 1.64 µM [falling, partial curve, poor fit]
CC1=CC(C)(C)N2C(=O)C3(C(C#N)=C(N)OC4=C3C(=O)CC(C)(C)C4)c3cc(C)cc1c32 (stereo not drawn)	inconclusive: 0.651 µM [falling, partial curve, poor fit]
C=CCn1cc(C(=O)N2CCc3ccccc3C2)c(=O)c2cc(S(=O)(=O)N(CC)CC)ccc21	inconclusive: 32.6 µM [activator, partial curve, poor fit]
Cc1ccc(C)c(NC(=O)CSc2nc3nc(-c4cccs4)cc(C(F)(F)F)c3c(=O)[nH]2)c1	inconclusive: 18.4 µM [falling, partial curve, poor fit]
COc1ccc(-c2c(-c3ccccc3)n(C)c3ccccc23)cc1	inconclusive: 16.4 µM [activator, partial curve]
Cc1cc(S(=O)(=O)Nc2ccc3ccccc3c2)c(C)s1	inconclusive: 18.4 µM [falling, single point]
Cc1onc(-c2ccccc2Cl)c1C(=O)N1CCN(c2ccc(F)cc2)CC1	inconclusive: 29.1 µM [falling, single point]
N=c1ccn(Cc2ccccc2Cl)cc1	inconclusive: 2.31 µM [falling, partial curve, poor fit]
CC1=NNC(=O)/C1=C\c1cn(-c2ccccc2)nc1-c1ccc(Cl)cc1	active: 20.6 µM
Cc1ccc(/C=N/NC(=O)CN(Cc2ccccc2)S(=O)(=O)c2ccc3c(c2)OCCO3)cc1	inactive
NS(=O)(=O)c1ccc(CCNC(=O)[C@@H]2CCCN2S(=O)(=O)c2ccccc2F)cc1	inconclusive: 32.6 µM [activator, partial curve, poor fit]
N#C/C(N=Nc1ccccc1O)=N\Nc1ccccc1O	inconclusive: 23.1 µM [falling, single point]

2 entries from above, set out differently.
SMILES,Potency
COc1ccc(C(=O)NC2CCCCCC2)cc1S(=O)(=O)N1CCOCC1,inactive
COc1ccc(S(=O)(=O)N[C@@H](Cc2ccc(Cl)cc2)C(=O)N2CC[C@@]3(O)CCCC[C@H]3C2)cc1,"inconclusive: 1.64 µM [falling, partial curve, poor fit]"

From PubChem BioAssay AID504648 (National Center for Advancing Translational Sciences (NCATS), 2011)
